Data as given in patent US9340584.
No constants are given. Whether binding was seen depends on the method and setting. Some results given as binding are weak or reduced against the parent protein; the word gives no strength. For some assays here: Sequences can lack the tags named with a protein.

Chains of the proteins cited; added tags and fusions are not shown. Residues count along the entry.
UniProt P02768, residues 25-609: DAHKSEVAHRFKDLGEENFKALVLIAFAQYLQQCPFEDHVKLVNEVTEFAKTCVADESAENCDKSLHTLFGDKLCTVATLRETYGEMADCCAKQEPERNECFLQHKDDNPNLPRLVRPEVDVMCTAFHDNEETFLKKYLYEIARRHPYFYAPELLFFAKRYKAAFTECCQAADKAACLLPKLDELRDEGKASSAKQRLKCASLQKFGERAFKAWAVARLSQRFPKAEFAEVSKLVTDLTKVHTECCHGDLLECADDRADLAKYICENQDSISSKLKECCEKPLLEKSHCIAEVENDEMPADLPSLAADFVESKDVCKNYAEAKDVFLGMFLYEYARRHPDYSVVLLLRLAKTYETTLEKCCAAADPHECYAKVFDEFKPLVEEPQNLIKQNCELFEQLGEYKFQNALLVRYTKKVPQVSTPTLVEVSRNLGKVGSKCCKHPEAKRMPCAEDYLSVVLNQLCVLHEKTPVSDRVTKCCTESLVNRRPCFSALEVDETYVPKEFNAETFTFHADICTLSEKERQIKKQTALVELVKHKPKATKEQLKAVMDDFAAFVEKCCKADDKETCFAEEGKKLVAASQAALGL
UniProt P07724, residues 25-608: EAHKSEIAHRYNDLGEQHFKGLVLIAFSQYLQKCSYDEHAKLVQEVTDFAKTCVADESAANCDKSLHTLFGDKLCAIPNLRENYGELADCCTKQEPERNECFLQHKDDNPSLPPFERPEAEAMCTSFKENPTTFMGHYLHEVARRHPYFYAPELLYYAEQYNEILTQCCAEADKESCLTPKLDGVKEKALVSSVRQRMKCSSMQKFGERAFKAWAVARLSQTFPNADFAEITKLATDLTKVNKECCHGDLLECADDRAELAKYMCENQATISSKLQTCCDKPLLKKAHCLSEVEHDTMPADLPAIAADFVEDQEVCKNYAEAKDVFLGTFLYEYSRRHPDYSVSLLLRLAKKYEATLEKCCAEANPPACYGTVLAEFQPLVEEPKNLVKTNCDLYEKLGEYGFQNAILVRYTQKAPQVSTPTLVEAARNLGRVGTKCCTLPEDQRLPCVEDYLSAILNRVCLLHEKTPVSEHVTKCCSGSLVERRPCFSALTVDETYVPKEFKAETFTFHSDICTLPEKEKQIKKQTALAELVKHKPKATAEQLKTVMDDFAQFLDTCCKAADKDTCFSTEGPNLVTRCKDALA
UniProt P02770, residues 25-608: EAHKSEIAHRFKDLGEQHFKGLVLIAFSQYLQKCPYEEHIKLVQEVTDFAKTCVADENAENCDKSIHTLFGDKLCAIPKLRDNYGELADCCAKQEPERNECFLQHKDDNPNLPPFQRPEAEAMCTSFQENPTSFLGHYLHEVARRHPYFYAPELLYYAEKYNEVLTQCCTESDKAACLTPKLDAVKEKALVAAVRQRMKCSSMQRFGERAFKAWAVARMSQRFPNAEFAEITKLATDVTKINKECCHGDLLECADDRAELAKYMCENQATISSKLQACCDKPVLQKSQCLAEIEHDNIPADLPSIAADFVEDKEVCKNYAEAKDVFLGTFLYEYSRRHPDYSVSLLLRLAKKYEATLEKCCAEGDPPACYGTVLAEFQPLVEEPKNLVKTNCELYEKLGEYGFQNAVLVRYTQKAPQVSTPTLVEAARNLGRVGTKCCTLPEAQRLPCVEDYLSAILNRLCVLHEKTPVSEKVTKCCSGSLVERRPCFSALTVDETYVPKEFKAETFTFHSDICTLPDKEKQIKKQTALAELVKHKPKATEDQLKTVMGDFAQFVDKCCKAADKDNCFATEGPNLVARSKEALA
UniProt P06127, residues 25-495: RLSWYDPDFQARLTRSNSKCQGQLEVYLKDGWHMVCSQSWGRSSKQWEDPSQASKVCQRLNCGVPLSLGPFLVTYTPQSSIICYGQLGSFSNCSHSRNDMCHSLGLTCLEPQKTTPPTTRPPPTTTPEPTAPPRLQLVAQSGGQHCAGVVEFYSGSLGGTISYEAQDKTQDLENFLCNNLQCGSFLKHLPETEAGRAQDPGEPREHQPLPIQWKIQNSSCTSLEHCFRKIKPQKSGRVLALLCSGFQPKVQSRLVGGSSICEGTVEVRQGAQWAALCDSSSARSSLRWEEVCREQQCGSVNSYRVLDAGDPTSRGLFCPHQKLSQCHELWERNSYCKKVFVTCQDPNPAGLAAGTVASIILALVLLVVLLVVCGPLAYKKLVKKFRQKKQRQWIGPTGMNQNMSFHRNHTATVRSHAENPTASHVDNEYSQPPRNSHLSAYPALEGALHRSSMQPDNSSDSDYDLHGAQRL
UniProt P20273, residues 20-687: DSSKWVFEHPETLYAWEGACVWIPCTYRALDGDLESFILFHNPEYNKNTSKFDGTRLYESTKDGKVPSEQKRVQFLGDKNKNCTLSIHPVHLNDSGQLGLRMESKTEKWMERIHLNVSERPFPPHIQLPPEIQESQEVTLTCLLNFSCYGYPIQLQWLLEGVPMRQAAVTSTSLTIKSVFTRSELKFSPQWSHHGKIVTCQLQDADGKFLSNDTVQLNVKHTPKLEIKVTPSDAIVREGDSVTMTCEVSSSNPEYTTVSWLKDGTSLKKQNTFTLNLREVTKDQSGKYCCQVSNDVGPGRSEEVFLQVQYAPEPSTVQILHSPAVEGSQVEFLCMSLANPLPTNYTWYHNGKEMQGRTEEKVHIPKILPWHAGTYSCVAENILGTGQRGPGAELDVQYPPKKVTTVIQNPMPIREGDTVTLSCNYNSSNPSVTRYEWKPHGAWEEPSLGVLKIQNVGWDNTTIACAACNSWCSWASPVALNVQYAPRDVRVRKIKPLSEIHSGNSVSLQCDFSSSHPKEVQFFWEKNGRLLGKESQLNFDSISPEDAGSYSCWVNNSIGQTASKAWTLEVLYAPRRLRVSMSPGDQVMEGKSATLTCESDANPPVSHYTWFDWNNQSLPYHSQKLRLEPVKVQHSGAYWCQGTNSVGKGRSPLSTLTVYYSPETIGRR
UniProt P15391, residues 20-291: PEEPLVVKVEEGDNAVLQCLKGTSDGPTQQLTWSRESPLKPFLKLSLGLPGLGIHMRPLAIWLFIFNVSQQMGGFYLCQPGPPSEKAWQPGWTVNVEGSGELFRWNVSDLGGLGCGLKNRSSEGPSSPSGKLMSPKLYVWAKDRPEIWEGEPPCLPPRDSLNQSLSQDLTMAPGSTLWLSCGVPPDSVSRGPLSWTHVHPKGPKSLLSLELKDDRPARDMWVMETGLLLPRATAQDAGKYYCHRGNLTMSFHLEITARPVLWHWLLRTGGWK

How the values were obtained:
[1] = molecular target: human serum albumin (human) (UniProt P02768); experiment: phage ELISA, HSA-biotin on streptavidin plate
[2] = molecular target: mouse serum albumin (mouse) (UniProt P07724); experiment: phage ELISA summary (FIG. 18C)
rat serum albumin (rat) [3] = molecular target: rat serum albumin (rat) (UniProt P02770); experiment: phage ELISA summary (FIG. 18C)
[4] = molecular target: human serum albumin (human) (UniProt P02768); experiment: phage ELISA summary (FIG. 18C)
[5] = molecular target: mouse serum albumin (mouse) (UniProt P07724); experiment: phage ELISA, MSA-biotin on streptavidin plate (FIG. 18B)
rat serum albumin (rat) [6] = molecular target: rat serum albumin (rat) (UniProt P02770); experiment: phage ELISA, RSA-biotin on streptavidin plate (FIG. 18B)
[7] = molecular target: human serum albumin (human) (UniProt P02768); experiment: phage ELISA, HSA-biotin on streptavidin plate (FIG. 18B)
[8] = molecular target: human serum albumin (human) (UniProt P02768); experiment: phage display selection from TRX-3 library
[9] = molecular target: human serum albumin (human) (UniProt P02768); experiment: phage ELISA in triplets, HSA-biotin on streptavidin plate
ECD-CD5-SBP-H8 [10] = experiment: phage ELISA, biotinylated CD5 on streptavidin plate
ECD-CD5-SBP-H8 [11] = experiment: phage display selection on bead-immobilised biotinylated ECD-CD5-SBP-H8
ECD-CD5-SBP-H8 [12] = experiment: phage display selection from TRX-3 library
[13] = molecular target: CD5 expressed on the cell surface (transfected HEK293T cells; Raji cells ectopically expressing wild type CD5) (UniProt P06127); experiment: cell-based phage ELISA, transfected HEK293T cells
[14] = molecular target: CD5 expressed on the cell surface (transfected HEK293T cells; Raji cells ectopically expressing wild type CD5) (UniProt P06127); experiment: flow cytometry, fluorescein-labelled protein on Raji cells
[15] = molecular target: CD5 expressed on the cell surface (transfected HEK293T cells; Raji cells ectopically expressing wild type CD5) (UniProt P06127); experiment: flow cytometry on Raji cells
CD22-Fc domain = CD22-Fc domain (UniProt P20273); experiment: phage display selection from TRX-3 library
CD19-Fc domains = CD19-Fc domains (UniProt P15391); experiment: phage display selection from TRX-3 library
[16] = molecular target: human serum albumin (human) (UniProt P02768); experiment: SPR, Biacore T100, compared with the wild type TRX fusion
[17] = molecular target: human serum albumin (human) (UniProt P02768); experiment: SPR, Biacore T100, HSA on CM5 chip
ECD-CD5-SBP-H8 [18] = experiment: phage display selection on ECD-CD5-SBP-H8

Measured: binding

B1: HSA binder C6 (TRX-3 library), phage-displayed (designed binder)
chain: MVKQIESKTAFQEALDAAGDKLVVVDFSATCQTGTKQLPWSGPSKMIKPFFHSLSEKYSNVIFLEVDVDDAQDVASEAFGHFGFPTLPTFQFFKKGQKVGEFSGANKEKLEATINELV
binds: [1] | [2] | rat serum albumin (rat) [3] | [4] | [5] | rat serum albumin (rat) [6] | [7] | [8] | [9]

B2: CD5 binder E6 (TRX-3 library), phage-displayed (designed binder)
chain: MVKQIESKTAFQEALDAAGDKLVVVDFSATNTIKHGGSRWSGPSKMIKPFFHSLSEKYSNVIFLEVDVDDAQDVASEAEKGILVSPLPTFQFFKKGQKVGEFSGANKEKLEATINELV
binds: ECD-CD5-SBP-H8 [10] | ECD-CD5-SBP-H8 [11] | ECD-CD5-SBP-H8 [12] | [13]

B3: free E6 protein (CD5 binder E6, purified) (designed binder)
chain: MVKQIESKTAFQEALDAAGDKLVVVDFSATNTIKHGGSRWSGPSKMIKPFFHSLSEKYSNVIFLEVDVDDAQDVASEAEKGILVSPLPTFQFFKKGQKVGEFSGANKEKLEATINELV
modifications: labelled with NHS-fluorescein (sites not given)
binds: [14] | [15]

B4: CD22 binder A6 (TRX-3 library) (designed binder)
chain: MVKQIESKTAFQEALDAAGDKLVVVDFSATKEPTVIGFWWSGPSKMIKPFFHSLSEKYSNVIFLEVDVDDAQDVASEALSPLFNFPLPTFQFFKKGQKVGEFSGANKEKLEATINELV
binds: CD22-Fc domain

B5: CD19 binder A1 (TRX-3 library) (designed binder)
chain: MVKQIESKTAFQEALDAAGDKLVVVDFSATKRNDNTSDTWSGPSKMIKPFFHSLSEKYSNVIFLEVDVDDAQDVASEAFRRWNSRWGPTFQFFKKGQKVGEFSGANKEKLEATINELV
binds: CD19-Fc domains

B6: CD19 binder A5 (TRX-3 library) (designed binder)
chain: MVKQIESKTAFQEALDAAGDKLVVVDFSATGDEQLVGRRWSGPSKMIKPFFHSLSEKYSNVIFLEVDVDDAQDVASEAFRRWNSRWGPTFQFFKKGQKVGEFSGANKEKLEATINELV
binds: CD19-Fc domains

B7: HSA binder H6 (TRX-3 library), phage-displayed (designed binder)
chain: MVKQIESKTAFQEALDAAGDKLVVVDFSATDRKPWKTRGWSGPSKMIKPFFHSLSEKYSNVIFLEVDVDDAQDVASEAFGLFSFPLLPTFQFFKKGQKVGEFSGANKEKLEATINELV
binds: [1] | [2] | rat serum albumin (rat) [3] | [4] | [5] | rat serum albumin (rat) [6] | [7] | [8] | [9]

B8: RLuc-H6 (protein, not shown: large carriers)
chain: MVKQIESKTAFQEALDAAGDKLVVVDFSATDRKPWKTRGWSGPSKMIKPFFHSLSEKYSNVIFLEVDVDDAQDVASEAFGLFSFPLLPTFQFFKKGQKVGEFSGANKEKLEATINELV
binds: [16] | [17]

B9: CD22 binder A4 (TRX-3 library) (designed binder)
chain: MVKQIESKTAFQEALDAAGDKLVVVDFSATRDPNNCRGTWSGPSKMIKPFFHSLSEKYSNVIFLEVDVDDAQDVASEACVLYSVGYAPTFQFFKKGQKVGEFSGANKEKLEATINELV
binds: CD22-Fc domain

B10: CD5 binder A5 (TRX-3 library) (designed binder)
chain: MVKQIESKTAFQEALDAAGDKLVVVDFSATQCNTGESHDWSGPSKMIKPFFHSLSEKYSNVIFLEVDVDDAQDVASEAWSPLIMCTMPTFQFFKKGQKVGEFSGANKEKLEATINELV
binds: ECD-CD5-SBP-H8 [10] | ECD-CD5-SBP-H8 [18] | ECD-CD5-SBP-H8 [12]

B11: CD22 binder E1 (TRX-3 library) (designed binder)
chain: MVKQIESKTAFQEALDAAGDKLVVVDFSATNVRESHKRGWSGPSKMIKPFFHSLSEKYSNVIFLEVDVDDAQDVASEAVSMFVLDSWPTFQFFKKGQKVGEFSGANKEKLEATINELV
binds: CD22-Fc domain

B12: CD5 binder A1 (TRX-3 library) (designed binder)
chain: MVKQIESKTAFQEALDAAGDKLVVVDFSATQWWGWIDGQWSGPSKMIKPFFHSLSEKYSNVIFLEVDVDDAQDVASEAYPLFGMAALPTFQFFKKGQKVGEFSGANKEKLEATINELV
binds: ECD-CD5-SBP-H8 [10] | ECD-CD5-SBP-H8 [18] | ECD-CD5-SBP-H8 [12]

B13: HSA binder E2 (TRX-3 library), phage-displayed (designed binder)
chain: MVKQIESKTAFQEALDAAGDKLVVVDFSATKNEKRDVAEWSGPSKMIKPFFHSLSEKYSNVIFLEVDVDDAQDVASEAFGFFGFPVLPTFQFFKKGQKVGEFSGANKEKLEATINELV
binds: [1] | [2] | rat serum albumin (rat) [3] | [4] | [5] | rat serum albumin (rat) [6] | [7] | [8] | [9]

B14: RLuc-E2 (protein, not shown: large carriers)
chain: MVKQIESKTAFQEALDAAGDKLVVVDFSATKNEKRDVAEWSGPSKMIKPFFHSLSEKYSNVIFLEVDVDDAQDVASEAFGFFGFPVLPTFQFFKKGQKVGEFSGANKEKLEATINELV
binds: [16] | [17]

B15: HSA binder F3 (TRX-3 library), phage-displayed (designed binder)
chain: MVKQIESKTAFQEALDAAGDKLVVVDFSATGGTPGRRNRWSGPSKMIKPFFHSLSEKYSNVIFLEVDVDDAQDVASEAFCEFCFPFLPTFQFFKKGQKVGEFSGANKEKLEATINELV
binds: [1] | [2] | rat serum albumin (rat) [3] | [4] | [5] | rat serum albumin (rat) [6] | [7] | [8] | [9]

B16: RLuc-F3 (protein, not shown: large carriers)
chain: MVKQIESKTAFQEALDAAGDKLVVVDFSATGGTPGRRNRWSGPSKMIKPFFHSLSEKYSNVIFLEVDVDDAQDVASEAFCEFCFPFLPTFQFFKKGQKVGEFSGANKEKLEATINELV
binds: [16] | [17]

B17: CD5 binder E10 (TRX-3 library) (designed binder)
chain: MVKQIESKTAFQEALDAAGDKLVVVDFSATKERDSAWDDWSGPSKMIKPFFHSLSEKYSNVIFLEVDVDDAQDVASEAFYWSYPSLPPTFQFFKKGQKVGEFSGANKEKLEATINELV
binds: ECD-CD5-SBP-H8 [10] | ECD-CD5-SBP-H8 [18] | ECD-CD5-SBP-H8 [12]
